Data published in article doi:10.1101/2024.09.30.615974.

Target: T1, AtSAP5 in Arabidopsis leaves (Arabidopsis) (UniProt Q9LHJ8)
T1 sequence: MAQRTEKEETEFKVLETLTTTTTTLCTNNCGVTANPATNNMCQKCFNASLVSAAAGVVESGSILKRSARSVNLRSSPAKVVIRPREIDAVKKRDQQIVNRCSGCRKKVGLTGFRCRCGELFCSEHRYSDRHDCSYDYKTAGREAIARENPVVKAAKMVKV
Experiment: affinity purification with mass spectrometry

binding: binds
B1: CAT2 in Arabidopsis leaves (enzyme, UniProt P25819 1-492)
chain: MDPYKYRPASSYNSPFFTTNSGAPVWNNNSSMTVGPRGPILLEDYHLVEKLANFDRERIPERVVHARGASAKGFFEVTHDISNLTCADFLRAPGVQTPVIVRFSTVIHERGSPETLRDPRGFAVKFYTREGNFDLVGNNFPVFFIRDGMKFPDMVHALKPNPKSHIQENWRILDFFSHHPESLNMFTFLFDDIGIPQDYRHMDGSGVNTYMLINKAGKAHYVKFHWKPTCGVKSLLEEDAIRVGGTNHSHATQDLYDSIAAGNYPEWKLFIQIIDPADEDKFDFDPLDVTKTWPEDILPLQPVGRMVLNKNIDNFFAENEQLAFCPAIIVPGIHYSDDKLLQTRVFSYADTQRHRLGPNYLQLPVNAPKCAHHNNHHEGFMNFMHRDEEVNYFPSRYDQVRHAEKYPTPPAVCSGKRERCIIEKENNFKEPGERYRTFTPERQERFIQRWIDALSDPRITHEIRSIWISYWSQADKSLGQKLASRLNVRPSI

These are yes or no findings as the source states them, for the method shown. In cells and extracts the contact can be indirect. These calls come from enrichment with a bait or labelling near it, and not all partners need be listed.
